Data taken from the supplement of paper PMC10849652.
The list shows a part of the results.

Protein sequences, listed by entry. Tags and fused reporters are not part of them. Lines headed by an entry give the natural chain unless they say otherwise; changes in a name come on top.
UniProt Q8NCG7: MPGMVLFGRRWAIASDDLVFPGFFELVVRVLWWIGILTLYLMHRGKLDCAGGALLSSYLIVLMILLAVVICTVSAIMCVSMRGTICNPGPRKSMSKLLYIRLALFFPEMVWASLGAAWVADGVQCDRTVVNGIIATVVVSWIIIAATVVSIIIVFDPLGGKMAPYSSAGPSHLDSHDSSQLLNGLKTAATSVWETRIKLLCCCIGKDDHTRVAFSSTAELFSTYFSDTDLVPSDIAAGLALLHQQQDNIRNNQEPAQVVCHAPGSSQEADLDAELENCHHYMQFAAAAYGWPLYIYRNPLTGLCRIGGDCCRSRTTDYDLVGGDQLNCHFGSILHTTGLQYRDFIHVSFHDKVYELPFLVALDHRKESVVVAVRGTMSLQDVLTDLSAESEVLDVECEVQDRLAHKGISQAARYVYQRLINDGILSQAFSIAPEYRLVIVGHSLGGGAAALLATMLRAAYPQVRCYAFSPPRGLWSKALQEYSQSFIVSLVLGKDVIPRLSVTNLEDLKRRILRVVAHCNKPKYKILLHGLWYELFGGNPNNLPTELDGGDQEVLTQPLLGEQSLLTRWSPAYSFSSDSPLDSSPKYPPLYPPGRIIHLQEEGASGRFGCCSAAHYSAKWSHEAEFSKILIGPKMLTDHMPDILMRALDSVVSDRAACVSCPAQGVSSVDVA
UniProt Q9H4E7, whole entry, looked up: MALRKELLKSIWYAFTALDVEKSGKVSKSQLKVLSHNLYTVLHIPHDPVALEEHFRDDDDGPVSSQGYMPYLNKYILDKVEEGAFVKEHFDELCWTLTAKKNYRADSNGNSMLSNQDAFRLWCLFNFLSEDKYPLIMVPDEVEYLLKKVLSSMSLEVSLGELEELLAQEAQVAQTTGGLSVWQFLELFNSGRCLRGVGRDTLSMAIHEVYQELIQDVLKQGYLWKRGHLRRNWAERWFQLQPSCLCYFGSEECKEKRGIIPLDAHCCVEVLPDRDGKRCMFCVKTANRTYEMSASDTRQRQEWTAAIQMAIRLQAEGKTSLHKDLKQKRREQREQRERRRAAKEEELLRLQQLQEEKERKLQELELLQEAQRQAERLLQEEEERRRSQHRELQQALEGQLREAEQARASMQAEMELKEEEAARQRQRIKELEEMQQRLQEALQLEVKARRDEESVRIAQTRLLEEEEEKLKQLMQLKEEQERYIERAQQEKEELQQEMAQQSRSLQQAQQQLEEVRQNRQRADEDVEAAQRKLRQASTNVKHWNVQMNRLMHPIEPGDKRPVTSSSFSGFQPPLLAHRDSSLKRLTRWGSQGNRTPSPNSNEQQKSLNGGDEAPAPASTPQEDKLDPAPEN
UniProt Q9UJW0, whole entry, looked up: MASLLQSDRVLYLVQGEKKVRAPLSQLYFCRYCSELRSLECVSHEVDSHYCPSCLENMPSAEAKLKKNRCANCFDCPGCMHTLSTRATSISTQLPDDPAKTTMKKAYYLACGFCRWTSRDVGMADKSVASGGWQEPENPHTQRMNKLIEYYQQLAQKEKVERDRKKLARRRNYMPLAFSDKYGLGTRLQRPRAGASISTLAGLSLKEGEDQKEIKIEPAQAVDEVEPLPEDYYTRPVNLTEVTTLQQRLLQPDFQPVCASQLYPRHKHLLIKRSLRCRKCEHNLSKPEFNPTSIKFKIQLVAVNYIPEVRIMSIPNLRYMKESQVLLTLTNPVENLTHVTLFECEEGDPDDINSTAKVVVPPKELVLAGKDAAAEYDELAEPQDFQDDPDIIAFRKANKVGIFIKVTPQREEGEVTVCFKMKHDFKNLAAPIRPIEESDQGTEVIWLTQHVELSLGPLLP
UniProt P32321: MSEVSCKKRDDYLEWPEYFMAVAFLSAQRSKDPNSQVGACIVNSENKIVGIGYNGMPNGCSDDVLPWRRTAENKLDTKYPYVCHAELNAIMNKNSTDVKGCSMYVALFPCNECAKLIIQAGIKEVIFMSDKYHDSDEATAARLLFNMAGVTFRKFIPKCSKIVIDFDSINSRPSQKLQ
UniProt Q9NY93: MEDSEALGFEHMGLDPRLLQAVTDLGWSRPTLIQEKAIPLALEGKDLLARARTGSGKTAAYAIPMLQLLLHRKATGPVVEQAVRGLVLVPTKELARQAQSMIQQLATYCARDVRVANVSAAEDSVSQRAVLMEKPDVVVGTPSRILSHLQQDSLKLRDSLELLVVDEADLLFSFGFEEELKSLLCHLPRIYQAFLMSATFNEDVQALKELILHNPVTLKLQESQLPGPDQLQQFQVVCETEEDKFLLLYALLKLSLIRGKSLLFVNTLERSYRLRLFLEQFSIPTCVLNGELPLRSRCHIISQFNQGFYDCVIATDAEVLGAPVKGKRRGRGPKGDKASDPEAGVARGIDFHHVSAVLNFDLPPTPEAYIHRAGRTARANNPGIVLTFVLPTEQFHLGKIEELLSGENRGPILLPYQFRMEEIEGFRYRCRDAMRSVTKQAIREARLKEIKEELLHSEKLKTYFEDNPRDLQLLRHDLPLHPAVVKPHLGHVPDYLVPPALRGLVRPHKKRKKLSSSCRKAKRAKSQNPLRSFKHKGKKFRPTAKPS
UniProt Q92841: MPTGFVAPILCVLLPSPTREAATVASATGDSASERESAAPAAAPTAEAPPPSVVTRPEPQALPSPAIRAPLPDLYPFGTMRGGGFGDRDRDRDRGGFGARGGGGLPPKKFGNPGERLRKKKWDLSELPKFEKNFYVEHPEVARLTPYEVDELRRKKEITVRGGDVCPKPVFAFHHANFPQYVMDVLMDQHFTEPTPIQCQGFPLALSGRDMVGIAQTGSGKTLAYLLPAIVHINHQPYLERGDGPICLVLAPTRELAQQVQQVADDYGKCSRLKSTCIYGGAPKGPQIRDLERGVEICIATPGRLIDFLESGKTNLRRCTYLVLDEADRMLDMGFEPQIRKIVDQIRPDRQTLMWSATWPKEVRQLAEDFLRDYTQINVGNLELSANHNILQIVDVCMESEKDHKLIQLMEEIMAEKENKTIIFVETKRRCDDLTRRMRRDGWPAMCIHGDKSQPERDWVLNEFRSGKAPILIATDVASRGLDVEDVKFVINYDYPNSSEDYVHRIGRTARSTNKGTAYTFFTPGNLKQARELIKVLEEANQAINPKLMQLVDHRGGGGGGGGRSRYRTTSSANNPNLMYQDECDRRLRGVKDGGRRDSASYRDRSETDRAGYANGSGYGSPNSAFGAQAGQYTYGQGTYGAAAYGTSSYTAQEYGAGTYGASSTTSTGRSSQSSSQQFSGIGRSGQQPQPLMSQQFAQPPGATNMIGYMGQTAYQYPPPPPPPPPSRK
UniProt Q7Z4W1: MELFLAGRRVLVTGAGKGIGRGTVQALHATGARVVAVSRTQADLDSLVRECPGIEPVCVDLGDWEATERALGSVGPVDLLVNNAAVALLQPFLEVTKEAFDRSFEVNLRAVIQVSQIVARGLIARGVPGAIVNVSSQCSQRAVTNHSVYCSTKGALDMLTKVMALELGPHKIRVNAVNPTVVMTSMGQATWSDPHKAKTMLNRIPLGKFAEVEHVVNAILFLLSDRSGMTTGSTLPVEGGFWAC
UniProt O00273: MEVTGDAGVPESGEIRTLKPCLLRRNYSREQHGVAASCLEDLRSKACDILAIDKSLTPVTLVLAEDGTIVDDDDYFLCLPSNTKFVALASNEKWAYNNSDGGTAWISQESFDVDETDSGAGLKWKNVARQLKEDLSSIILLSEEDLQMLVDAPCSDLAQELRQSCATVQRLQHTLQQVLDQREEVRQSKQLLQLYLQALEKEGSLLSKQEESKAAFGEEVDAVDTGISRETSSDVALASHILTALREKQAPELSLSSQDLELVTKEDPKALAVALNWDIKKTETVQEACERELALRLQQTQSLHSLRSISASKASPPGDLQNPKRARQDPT
UniProt Q9BTE7: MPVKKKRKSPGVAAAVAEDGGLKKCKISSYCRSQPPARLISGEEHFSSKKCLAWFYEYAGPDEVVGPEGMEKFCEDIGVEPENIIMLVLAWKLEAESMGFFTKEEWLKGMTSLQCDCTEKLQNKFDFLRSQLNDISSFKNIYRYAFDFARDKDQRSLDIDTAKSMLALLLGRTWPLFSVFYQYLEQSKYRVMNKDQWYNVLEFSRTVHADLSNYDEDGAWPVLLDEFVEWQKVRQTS
UniProt Q5VZ89: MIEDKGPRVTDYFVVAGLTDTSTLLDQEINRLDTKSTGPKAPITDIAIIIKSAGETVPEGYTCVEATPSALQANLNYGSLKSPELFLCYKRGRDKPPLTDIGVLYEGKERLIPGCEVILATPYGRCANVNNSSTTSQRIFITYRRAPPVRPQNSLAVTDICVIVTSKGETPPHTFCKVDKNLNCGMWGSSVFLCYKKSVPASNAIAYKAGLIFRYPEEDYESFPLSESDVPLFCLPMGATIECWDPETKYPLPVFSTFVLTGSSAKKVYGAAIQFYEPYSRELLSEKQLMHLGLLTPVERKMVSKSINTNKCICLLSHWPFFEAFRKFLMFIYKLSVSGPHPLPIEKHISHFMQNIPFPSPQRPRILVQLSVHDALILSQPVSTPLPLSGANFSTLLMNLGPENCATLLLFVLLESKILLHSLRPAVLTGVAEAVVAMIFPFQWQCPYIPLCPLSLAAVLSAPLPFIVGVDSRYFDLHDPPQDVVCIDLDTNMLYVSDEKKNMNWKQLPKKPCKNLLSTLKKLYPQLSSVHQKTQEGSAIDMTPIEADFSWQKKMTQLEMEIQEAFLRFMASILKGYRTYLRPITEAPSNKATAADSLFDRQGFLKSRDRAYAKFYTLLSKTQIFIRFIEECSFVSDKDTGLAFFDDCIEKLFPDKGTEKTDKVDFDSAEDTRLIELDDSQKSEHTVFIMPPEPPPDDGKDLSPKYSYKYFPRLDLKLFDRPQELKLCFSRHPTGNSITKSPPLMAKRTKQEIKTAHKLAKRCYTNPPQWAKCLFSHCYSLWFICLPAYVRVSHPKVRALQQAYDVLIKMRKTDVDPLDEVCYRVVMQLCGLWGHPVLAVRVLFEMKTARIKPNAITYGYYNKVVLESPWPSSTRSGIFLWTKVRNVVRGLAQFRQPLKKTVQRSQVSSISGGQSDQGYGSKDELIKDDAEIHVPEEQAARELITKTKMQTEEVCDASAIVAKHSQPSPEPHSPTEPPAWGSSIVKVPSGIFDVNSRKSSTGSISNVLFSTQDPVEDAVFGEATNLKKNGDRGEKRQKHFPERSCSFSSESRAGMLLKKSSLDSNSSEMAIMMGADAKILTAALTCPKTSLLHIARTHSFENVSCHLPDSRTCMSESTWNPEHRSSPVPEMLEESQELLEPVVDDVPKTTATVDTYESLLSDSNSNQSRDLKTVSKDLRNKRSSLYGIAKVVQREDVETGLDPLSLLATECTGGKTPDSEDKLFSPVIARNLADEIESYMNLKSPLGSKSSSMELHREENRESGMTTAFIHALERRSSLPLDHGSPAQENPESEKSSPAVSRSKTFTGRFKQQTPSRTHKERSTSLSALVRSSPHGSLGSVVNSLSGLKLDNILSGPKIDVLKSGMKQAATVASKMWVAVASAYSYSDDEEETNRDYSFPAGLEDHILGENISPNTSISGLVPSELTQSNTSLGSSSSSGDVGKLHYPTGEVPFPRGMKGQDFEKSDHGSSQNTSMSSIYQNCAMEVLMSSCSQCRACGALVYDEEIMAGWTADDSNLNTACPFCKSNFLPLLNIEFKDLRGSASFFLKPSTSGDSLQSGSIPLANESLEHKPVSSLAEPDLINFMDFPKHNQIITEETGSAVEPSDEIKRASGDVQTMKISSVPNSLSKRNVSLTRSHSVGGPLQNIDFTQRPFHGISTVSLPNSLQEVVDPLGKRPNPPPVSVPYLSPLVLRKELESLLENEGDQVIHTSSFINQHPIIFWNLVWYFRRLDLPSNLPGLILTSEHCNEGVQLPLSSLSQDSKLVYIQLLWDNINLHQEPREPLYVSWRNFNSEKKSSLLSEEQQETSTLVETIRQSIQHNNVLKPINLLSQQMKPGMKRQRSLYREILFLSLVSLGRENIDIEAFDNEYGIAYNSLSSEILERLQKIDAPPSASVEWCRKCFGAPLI
UniProt Q5T1V6: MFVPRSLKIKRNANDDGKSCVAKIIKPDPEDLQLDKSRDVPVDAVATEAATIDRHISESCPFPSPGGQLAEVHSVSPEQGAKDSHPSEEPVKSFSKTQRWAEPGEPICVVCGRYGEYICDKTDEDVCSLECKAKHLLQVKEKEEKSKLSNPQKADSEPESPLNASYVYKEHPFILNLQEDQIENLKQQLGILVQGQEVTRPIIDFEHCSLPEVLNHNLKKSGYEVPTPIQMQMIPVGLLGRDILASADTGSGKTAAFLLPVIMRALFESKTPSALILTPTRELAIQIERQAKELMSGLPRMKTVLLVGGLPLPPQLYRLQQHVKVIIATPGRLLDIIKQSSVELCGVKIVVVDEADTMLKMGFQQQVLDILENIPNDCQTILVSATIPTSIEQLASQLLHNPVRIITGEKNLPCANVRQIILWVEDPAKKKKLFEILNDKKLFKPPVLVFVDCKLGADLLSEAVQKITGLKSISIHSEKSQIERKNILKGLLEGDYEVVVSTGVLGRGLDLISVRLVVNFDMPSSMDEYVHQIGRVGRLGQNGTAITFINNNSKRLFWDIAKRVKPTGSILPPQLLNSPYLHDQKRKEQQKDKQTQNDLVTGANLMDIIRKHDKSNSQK

compound: Cc1cn(-c2cc(NC(=O)c3ccc(C)c(Nc4nccc(-c5cccnc5)n4)c3)cc(C(F)(F)F)c2)cn1 [nilotinib]; assay: log2 fold change, soluble protein after heating vs DMSO (PISA); higher = thermal stabilisation; K562 lysate, 10 uM; active = over 0.2 and 3.5 SD of the protein, either way, in both replicates (recomputed)
Procedure, shortened: (§1)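 K562 pellets were dounce-homogenised in PBS pH 7.4 with 1 mM MgCl2, and the crude extract at 1 mg/mL protein was treated with 10 μM compound for 30 min. Aliquots were heated for 3 min across 48°C-58°C, pooled, and brought to 0.5% NP-40 at 4°C; soluble protein was the supernatant after 21,000xg for 90 min. Soluble protein was quantified by TMTpro 16plex LC-MS/MS with channel sums equalised, and reported as log2 fold change in thermal stability against DMSO controls, with values from duplicates.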

log2 fold change, inactive:
CYP24A1 (UniProt Q07973) 0.036
DAGLB (UniProt Q8NCG7) 0.029
DDX3X (UniProt O00571) -0.028
DDB1 (UniProt Q16531) 0.005
DEF6 (UniProt Q9H4E7) -0.058
DDAH2 (UniProt O95865) 0.03
DECR2 (UniProt Q9NUI1) -0.075
DDX18 (UniProt Q9NVP1) 0.004
DCTN4 (UniProt Q9UJW0) 0.026
DCTD isoform 2 (UniProt P32321) 0.035
DDX56 (UniProt Q9NY93) -0.053
DDX17 (UniProt Q92841) -0.047
DCXR (UniProt Q7Z4W1) 0.005
DCTN2 isoform 3 (UniProt Q13561) 0.018
DCP2 (UniProt Q8IU60) -0.065
DCAF11 (UniProt Q8TEB1) 0.007
DENND6A (UniProt Q8IWF6) 0.012
DCAF13 (UniProt Q9NV06) -0.006
DCAF15 (UniProt Q66K64) -0.035
DCAF4L2 (UniProt Q8NA75) -0.028
DCTN2 (UniProt Q13561) -0.211
DAZAP1 (UniProt Q96EP5) -0.066
DFFA isoform 2 (UniProt O00273) 0.084
DCUN1D5 (UniProt Q9BTE7) 0.009
DENND4A isoform 2 (UniProt Q7Z401) -0.02
DEK (UniProt P35659) 0.007
DCTN3 (UniProt O75935) -0.01
DAG1 (UniProt Q14118) 0.058
DENND4C (UniProt Q5VZ89) 0.019
DDT (UniProt P30046) 0.076
DDX59 (UniProt Q5T1V6) -0.009
DENND1B (UniProt Q6P3S1) 0.042

compound: Cc1nc(Nc2n[nH]c3c2CN(C(=O)N[C@H](CN(C)C)c2ccccc2)C3(C)C)c2sccc2n1; assay: as above
Procedure, shortened: as §1

log2 fold change, inactive:
CYP24A1 (UniProt Q07973) -0.029
DAGLB (UniProt Q8NCG7) -0.064
DDX3X (UniProt O00571) -0.019
DDB1 (UniProt Q16531) 0.005
DEF6 (UniProt Q9H4E7) 0.046
DDAH2 (UniProt O95865) 0.022
DECR2 (UniProt Q9NUI1) -0.048
DDX18 (UniProt Q9NVP1) -0.002
DCTN4 (UniProt Q9UJW0) 0.008
DCTD isoform 2 (UniProt P32321) -0.006
DDX56 (UniProt Q9NY93) -0.03
DDX17 (UniProt Q92841) -0.012
DCXR (UniProt Q7Z4W1) -0.04
DCTN2 isoform 3 (UniProt Q13561) -0.041
DCP2 (UniProt Q8IU60) -0.051
DCAF11 (UniProt Q8TEB1) 0.082
DENND6A (UniProt Q8IWF6) -0.009
DCAF13 (UniProt Q9NV06) 0.078
DCAF15 (UniProt Q66K64) -0.009
DCAF4L2 (UniProt Q8NA75) -0.026
DCTN2 (UniProt Q13561) 0.195
DAZAP1 (UniProt Q96EP5) 0.04
DFFA isoform 2 (UniProt O00273) -0.064
DCUN1D5 (UniProt Q9BTE7) 0.001
DENND4A isoform 2 (UniProt Q7Z401) -0.002
DEK (UniProt P35659) -0.009
DCTN3 (UniProt O75935) -0.017
DAG1 (UniProt Q14118) 0.078
DENND4C (UniProt Q5VZ89) 0.024
DDT (UniProt P30046) -0.003
DDX59 (UniProt Q5T1V6) 0.006
DENND1B (UniProt Q6P3S1) -0.073

compound: Cc1nc(Nc2ncc(C(=O)Nc3c(C)cccc3Cl)s2)cc(N2CCN(CCO)CC2)n1 [dasatinib]; assay: as above
Procedure, shortened: as §1

log2 fold change, inactive:
CYP24A1 (UniProt Q07973) -0.049
DAGLB (UniProt Q8NCG7) -0.043
DDX3X (UniProt O00571) -0.023
DDB1 (UniProt Q16531) 0.048
DEF6 (UniProt Q9H4E7) -0.034
DDAH2 (UniProt O95865) 0.023
DECR2 (UniProt Q9NUI1) 0.049
DDX18 (UniProt Q9NVP1) 0.004
DCTN4 (UniProt Q9UJW0) -0.055
DCTD isoform 2 (UniProt P32321) 0.013
DDX56 (UniProt Q9NY93) -0.043
DDX17 (UniProt Q92841) 0.003
DCXR (UniProt Q7Z4W1) -0.02
DCTN2 isoform 3 (UniProt Q13561) -0.027
DCP2 (UniProt Q8IU60) 0.009
DCAF11 (UniProt Q8TEB1) -0.047
DENND6A (UniProt Q8IWF6) 0.053
DCAF13 (UniProt Q9NV06) 0.056
DCAF15 (UniProt Q66K64) 0
DCAF4L2 (UniProt Q8NA75) -0.093
DCTN2 (UniProt Q13561) -0.057
DAZAP1 (UniProt Q96EP5) 0.015
DFFA isoform 2 (UniProt O00273) 0.038
DCUN1D5 (UniProt Q9BTE7) -0.018
DENND4A isoform 2 (UniProt Q7Z401) -0.008
DEK (UniProt P35659) 0.016
DCTN3 (UniProt O75935) -0.019
DAG1 (UniProt Q14118) 0.014
DENND4C (UniProt Q5VZ89) -0.042
DDT (UniProt P30046) -0.002
DDX59 (UniProt Q5T1V6) 0.012
DENND1B (UniProt Q6P3S1) 0.073
